Like-named read-outs stand apart in the source and are kept apart here. The source gives many values for each of these; only a part stands here.
Assay type: physicochemical
Method: A 10 mL solution of M4N at a concentration of about 10 mg/mL in 40% BP-β-CD was made as follows. About 10 mL of the 40% HP-β-CD solution were added to a glass beaker containing a stir bar. The beaker was placed on a magnetic plate and the stir bar was set to stir at medium speed. About […] of M4N were slowly added to the 40% HP-β-CD in the center of the beaker with the aid of a spatula. The M4N/40% HP-β-CD mixture was stirred for 2 hr or until all M4N was uniformly suspended without any clumps being present. The M4N/40% HP-β-CD mixture was optionally heated at 80° C. for about 30 min. (or longer if a larger volume of solution was desired, for example, 1 hr at 80° C. for 100 mL of the M4N/HP-β-CD mixture), or longer as needed to ensure complete dissolution of M4N. […] The final M4N/40% HP-β-CD solution was stored at room temperature and was kept protected from light. This process may be scaled up or down to obtain the requisite volume or concentration of M4N. Formulations containing M4N in other cyclodextrin solutions may be similarly made, such as, for example, by substituting HP-β-CD in the process described above with other cyclodextrins. […]
A 10 mL solution of M4N at a concentration of about 10 mg/mL in 50% HP-β-CD/0.5% HPMC was made as follows. About 10 mL of the 50% HP-β-CD/0.5% HPMC solution were added to a glass beaker containing a stir bar. The beaker was placed on a magnetic plate and the stir bar was set to stir at medium speed. About 100 mg of M4N were slowly added to the 50% HP-β-CD/0.5% HPMC in the center of the beaker with the aid of a spatula. The M4N/50% HP-β-CD/0.5% HPMC mixture was stirred for 24 hr or until all M4N was uniformly suspended without any clumps being present. The M4N/50% HP-β-CD/0.5% HPMC mixture was heated at about 90° C. for about 30 min. (or longer if a larger volume of solution was desired, for example, 1 hr at 90° C. for 500 mL of the M4N/50% HP-β-CD/0.5% HPMC mixture), or longer as needed to ensure complete dissolution of M4N. […] The final M4N/50% HP-β-CD/0.5% HPMC solution was stored at room temperature and was kept protected from light.
A 10 mL solution of M4N at a concentration of about 20 mg/mL in 5% EC (w/v) (the “EC formulation”) was made as follows. About 10 mL of 5% EC formulation, made as described above, were added to a glass beaker containing a stir bar. The beaker was placed on a magnetic plate and the stir bar was set to stir at medium speed, and covered with a round Teflon® cover. About 200 mg of M4N were slowly added to the 5% EC formulation in the center of the beaker with the aid of a spatula to prevent M4N from sticking to the beaker wall. The M4N/EC mixture was stirred for 2 hr or until all M4N had dissolved or was uniformly suspended without any clumps being present. The M4N/EC mixture was heated at about 60° C. for about 30 min. (or longer if a larger volume of solution was desired, for example, 1 hr at 60° C. for 500 mL of the M4N/EC mixture), or longer as needed to ensure complete dissolution of M4N. […] The final M4N/EC solution was stored at room temperature and was kept protected from light.
A 10 mL solution of M4N at a concentration of about 50 mg/mL in sesame oil was made as follows. About 10 mL of sesame oil were added to a glass beaker containing a stir bar. The beaker was placed on a magnetic plate and the stir bar was set to stir at medium speed. About 500 mg of M4N were slowly added to the sesame oil in the center of the beaker with the aid of a spatula to prevent M4N from sticking to the beaker wall. The M4N/sesame oil mixture was stirred for about 2 hr or until all M4N had dissolved or was uniformly suspended without any clump being present. The M4N/sesame oil mixture was heated at about 60° C. for about 30 min. (or longer if a larger volume of solution was desired, for example, 1 hr at 60° C. for 500 mL of the M4N/sesame oil mixture), or longer as need to ensure complete dissolution of M4N. […]
For Dissolution After Cool Down in this document: key: N represents 'No'; Y represents 'Yes.'.

## COc1ccc(C[C@@H](C)[C@@H](C)Cc2ccc(OC)c(OC)c2)cc1OC [Formulation M4N, meso-1,4-bis(3,4-dimethoxyphenyl)-2,3-dimethylbutane]
M4N 60 mg/mL in Corn Oil
  Dissolution After Rotation: N
M4N 60 mg/mL in Corn Oil, 60° C.
  Dissolution After Heating: Y at 60 °C
M4N 60 mg/mL in Peppermint Oil
  Dissolution After Rotation: N
M4N 60 mg/mL in Peppermint Oil, 40° C.
  Dissolution After Heating: Y at 40 °C
M4N 100 mg/g in 50% Soybean Oil, 50% Beeswax (w/w)
  Dissolution After Rotation: N
M4N 100 mg/g in 50% Soybean Oil, 50% Beeswax (w/w), 60° C.
  Dissolution After Heating: Y at 60 °C
M4N 100 mg/mL in 2.3% HPMC, 90° C.
  Dissolution After Heating: N at 90 °C
M4N 100 mg/mL in 5% EC in EtOH, 90° C.
  Dissolution After Heating: Y at 90 °C
M4N 100 mg/mL in 50% Peppermint Oil, 50% PEG 400
  Dissolution After Rotation: N
M4N 100 mg/mL in 50% Peppermint Oil, 50% PEG 400, 40° C.
  Dissolution After Heating: Y at 40 °C
M4N 100 mg/mL in Camillia Oil
  Dissolution After Rotation: N
M4N 100 mg/mL in Camillia Oil, 60° C.
  Dissolution After Heating: Y at 60 °C
M4N 100 mg/mL in Corn Oil
  Dissolution After Rotation: N
M4N 100 mg/mL in Corn Oil, 60° C.
  Dissolution After Heating: Y at 60 °C
M4N 100 mg/mL in Eugenol, Beeswax, Olive Oil, 0.5% (v/v) Eugenol
  Dissolution After Rotation: N
M4N 100 mg/mL in Eugenol, Beeswax, Olive Oil, 0.5% (v/v) Eugenol, 50° C.
  Dissolution After Heating: Y at 50 °C
M4N 100 mg/mL in Mineral Oil
  Dissolution After Rotation: N
M4N 100 mg/mL in Mineral Oil, 60° C.
  Dissolution After Heating: Y at 60 °C
M4N 100 mg/mL in Peppermint Oil
  Dissolution After Rotation: N
M4N 100 mg/mL in Peppermint Oil, 40° C.
  Dissolution After Heating: Y at 40 °C
M4N 125 mg/mL in 50% Peppermint Oil, 50% PEG 300
  Dissolution After Rotation: N
M4N 125 mg/mL in 50% Peppermint Oil, 50% PEG 300, 35° C.
  Dissolution After Heating: Y at 35 °C
M4N 125 mg/mL in 50% Peppermint Oil, 50% PEG 400
  Dissolution After Rotation: N
M4N 125 mg/mL in 50% Peppermint Oil, 50% PEG 400, 40° C.
  Dissolution After Heating: Y at 40 °C
M4N 125 mg/mL in 50% Peppermint Oil, 50% Tween ® 20
  Dissolution After Rotation: N
M4N 125 mg/mL in 50% Peppermint Oil, 50% Tween ® 20, 40° C.
  Dissolution After Heating: Y at 40 °C
M4N 125 mg/mL in Peppermint Oil
  Dissolution After Rotation: N
M4N 125 mg/mL in Peppermint Oil, 40° C.
  Dissolution After Heating: Y at 40 °C
M4N 200 mg/g in 75% Soybean Oil, 25% Beeswax (w/w)
  Dissolution After Rotation: N
M4N 200 mg/g in 75% Soybean Oil, 25% Beeswax (w/w), 60° C.
  Dissolution After Heating: Y at 60 °C
M4N 200 mg/g in 90% Olive Oil, 10% Beeswax (w/w)
  Dissolution After Rotation: N
M4N 200 mg/g in 90% Olive Oil, 10% Beeswax (w/w), 60° C.
  Dissolution After Heating: Y at 60 °C
M4N 200 mg/g in 90% Soybean Oil, 10% Beeswax (w/w)
  Dissolution After Rotation: N
M4N 200 mg/g in 90% Soybean Oil, 10% Beeswax (w/w), 60° C.
  Dissolution After Heating: Y at 60 °C
M4N 200 mg/g in 95% Olive Oil, 5% Beeswax (w/w)
  Dissolution After Rotation: N
M4N 200 mg/g in 95% Olive Oil, 5% Beeswax (w/w), 60° C.
  Dissolution After Heating: Y at 60 °C
M4N 200 mg/g in 95% Soybean Oil, 5% Beeswax (w/w)
  Dissolution After Rotation: N
M4N 200 mg/g in 95% Soybean Oil, 5% Beeswax (w/w), 60° C.
  Dissolution After Heating: Y at 60 °C
M4N 200 mg/mL in Mineral Oil
  Dissolution After Rotation: N
M4N 200 mg/mL in Mineral Oil, 60° C.
  Dissolution After Heating: Y at 60 °C
PEG 300 33%, M4N 10 mg/mL, heating at 50° C.
  Dissolution After Heating: N at
PEG 300 100%, M4N 25 mg/mL, heating at 50° C.
  Dissolution After Heating: Y at
PEG 300 100%, M4N 30 mg/mL, after heating at 50° C.
  Dissolution After Cool-Down: Y
PEG 300 100%, M4N 30 mg/mL, heating at 50° C.
  Dissolution After Heating: Y at
PEG 300 100%, M4N 40 mg/mL, after heating at 50° C.
  Dissolution After Cool-Down: Y
PEG 300 100%, M4N 40 mg/mL, heating at 50° C.
  Dissolution After Heating: Y at
PEG 300 100%, M4N 50 mg/mL, after heating at 60° C.
  Dissolution After Cool-Down: Y
PEG 300 100%, M4N 50 mg/mL, heating at 60° C.
  Dissolution After Heating: Y at
PEG 300 100%, M4N 100 mg/mL, after heating at 60° C.
  Dissolution After Cool-Down: N
PEG 300 100%, M4N 100 mg/mL, heating at 60° C.
  Dissolution After Heating: Y at
PEG 400 5%, M4N 10 mg/mL, heating at 50° C.
  Dissolution After Heating: N at
PEG 400 100%, M4N 25 mg/mL, heating at 50° C.
  Dissolution After Heating: Y at
PEG 400 100%, M4N 30 mg/mL, heating at 50° C.
  Dissolution After Heating: Y at
PEG 400 100%, M4N 40 mg/mL, heating at 50° C.
  Dissolution After Heating: Y at
PEG 400 100%, M4N 50 mg/mL, heating at 60° C.
  Dissolution After Heating: Y at
PEG 400 100%, M4N 100 mg/mL, heating at 60° C.
  Dissolution After Heating: Y at
PEG 400 mono-laurate 100%, M4N 20 mg/mL
  Dissolution After Rotation: N
PEG 400 mono-laurate 100%, M4N 20 mg/mL, heating at 50° C.
  Dissolution After Heating: Y at
PEG 400 mono-laurate 100%, M4N 50 mg/mL
  Dissolution After Rotation: N
PEG 400 mono-laurate 100%, M4N 50 mg/mL, heating at 50° C.
  Dissolution After Heating: Y at
PVP 15% (w/v), M4N 1 mg/mL
  Dissolution After Rotation: N
PVP 15% (w/v), M4N 1 mg/mL, heating at 90° C.
  Dissolution After Heating: N at
PVP 15% (w/v), M4N 10 mg/mL
  Dissolution After Rotation: N
PVP 15% (w/v), M4N 10 mg/mL, heating at 90° C.
  Dissolution After Heating: N at
Propylene Glycol 100% (w/v), M4N 1 mg/mL
  Dissolution After Rotation: N
Propylene Glycol 100% (w/v), M4N 1 mg/mL, heating at 55° C.
  Dissolution After Heating: Y at
Propylene Glycol 100% (w/v), M4N 10 mg/mL
  Dissolution After Rotation: N
Propylene Glycol 100% (w/v), M4N 10 mg/mL, heating at 55° C.
  Dissolution After Heating: Y at
Propylene Glycol 100% (w/v), M4N 20 mg/mL
  Dissolution After Rotation: N
Propylene Glycol 100% (w/v), M4N 20 mg/mL, heating at 55° C.
  Dissolution After Heating: Y at
TPGS 20% (w/v), M4N 1 mg/ml
  Dissolution After Rotation: N
TPGS 20% (w/v), M4N 1 mg/ml, after heating at 30° C.
  Dissolution After Cool Down: Creamy
TPGS 20% (w/v), M4N 1 mg/ml, heating at 30° C.
  Dissolution After Heating: Y at 30 °C
TPGS 20% (w/v), M4N 10 mg/ml
  Dissolution After Rotation: N
TPGS 20% (w/v), M4N 10 mg/ml, after heating at 60° C.
  Dissolution After Cool Down: Creamy
TPGS 20% (w/v), M4N 10 mg/ml, heating at 60° C.
  Dissolution After Heating: Y at 60 °C
TPGS 20% (w/v), M4N 60 mg/ml
  Dissolution After Rotation: Suspension
TPGS 20% (w/v), M4N 100 mg/ml
  Dissolution After Rotation: Suspension
TPGS 20% (w/v), M4N 125 mg/ml
  Dissolution After Rotation: N
TPGS 20% (w/v), M4N 125 mg/ml, after heating at 60° C.
  Dissolution After Cool Down: Creamy
TPGS 20% (w/v), M4N 125 mg/ml, heating at 60° C.
  Dissolution After Heating: Y at 60 °C
TPGS 20% (w/v), M4N 200 mg/ml
  Dissolution After Rotation: N
TPGS 20% (w/v), M4N 200 mg/ml, after heating at 60° C.
  Dissolution After Cool Down: Creamy
TPGS 20% (w/v), M4N 200 mg/ml, heating at 60° C.
  Dissolution After Heating: Y at 60 °C
Tween ® 20 100% (v/v), M4N 10 mg/ml, after heating at 50° C.
  Dissolution After Cool Down: Y
Tween ® 20 100% (v/v), M4N 20 mg/ml, after heating at 50° C.
  Dissolution After Cool Down: Y
Tween ® 20 100% (v/v), M4N 40 mg/ml, after heating at 50° C.
  Dissolution After Cool Down: Y
Tween ® 20 100% (v/v), M4N 60 mg/ml, after heating at 50° C.
  Dissolution After Cool Down: Y
Tween ® 20 100% (v/v), M4N 80 mg/ml, after heating at 50° C.
  Dissolution After Cool Down: N
Tween ® 20 100% (v/v), M4N 100 mg/ml, after heating at 50° C.
  Dissolution After Cool Down: N
Tween ® 80 100% (v/v), M4N 10 mg/ml, after heating at 50° C.
  Dissolution After Cool Down: Y
Tween ® 80 100% (v/v), M4N 50 mg/ml, after heating at 50° C.
  Dissolution After Cool Down: Y

From US20090022803A1, “Oral Formulations For Delivery of Catecholic Butanes Including Ndga Compounds” (priority 2005, published 2009)
